# In patent US20260184795A1:
# No constants are given. Whether binding was seen depends on the method and setting. Some binding calls cover weakened binding; strength is not graded here. Where a sequence is shown, tags or fusion partners need not be part of it.
# B1: 9H-1 (humanized DDR1-9, WT IgG1 Fc) (antibody, V domains shown)
# VH: QVQLVESGGRVVQPGRSLRLSCTASGFSLNRYYMLWVRQAPGKGLEWIGTISYGDTTYYASWAKGRFTISRDNSKNTLYLQMNSLRAEDTAVYYCARADTGDNGYLGLQLWGQGTLVTVSS
# VL: DIQMTQSPSSVSASVGDRVTITCQASQSIGSVLAWYQQKPGKAPKLLISGVFDLASGVPSRFSGSGSGTDFTLTISSLQPEDFATYYCQYIPYGSSPFGGGTKVEIKR
# Target: BT549
# Assay: flow cytometry, percent of 9H-1-binding BT549 cells (DDR1 low/DDR2 high)
binder,measurement,value
B1,binding,binds
